From PMC9368909
Results are given in words; binding and its absence hold for the method and conditions named. Some binding calls cover weakened binding; strength is not graded here. For some of these results: Tags and fused reporters may be left off the sequences shown.

Chains of the proteins cited; added tags and fusions are not shown.
UniProt O14733: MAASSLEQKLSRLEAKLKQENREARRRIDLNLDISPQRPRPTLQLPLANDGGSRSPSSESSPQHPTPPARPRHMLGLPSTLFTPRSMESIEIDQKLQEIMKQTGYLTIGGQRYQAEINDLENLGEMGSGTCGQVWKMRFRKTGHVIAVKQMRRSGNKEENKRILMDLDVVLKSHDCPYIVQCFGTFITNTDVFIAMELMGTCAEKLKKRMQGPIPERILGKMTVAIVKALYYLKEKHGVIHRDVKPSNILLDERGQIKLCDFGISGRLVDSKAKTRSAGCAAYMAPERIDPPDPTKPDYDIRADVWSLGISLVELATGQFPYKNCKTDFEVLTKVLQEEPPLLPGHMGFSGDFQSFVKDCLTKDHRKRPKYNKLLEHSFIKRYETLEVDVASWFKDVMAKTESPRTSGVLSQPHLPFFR

T1: MBP fusion of T1A peptide (first 25 N-terminal residues of arrestin-3), P32120
T1 chain: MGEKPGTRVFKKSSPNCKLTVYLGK


Tests used:
Assay in all cases: pull-down; MBP fusions (10 μg) immobilised on amylose resin, incubated with purified kinase (5 μg) for 2 h at 4 °C in 20 mM Tris-HCl pH 7.2, 150 mM NaCl; three washes; eluted with 50 mM maltose; Western blot with densitometry; both purified
[1] = biological target: MBP fusion of full-length arrestin-3 (UniProt P32120)
[2] = biological target: MBP fusion of T1A peptide (first 25 N-terminal residues of arrestin-3) (UniProt P32120)
[3] = biological target: T1, MBP fusion of T1A peptide (first 25 …); details: remark: other sources report otherwise

binding [1] | binding [2] | Molecule | binding [3]
binds | binds | GST-MKK7 (from UniProt O14733 1-419) (enzyme) | 
binds |  | GST-MKK4 (enzyme, UniProt P45985 1-399) MAAPSPSGGGGSGGGSGSGTPGPVGSPAPGHPAVSSMQGKRKALKLNFANPPFKSTARFTLNPNPTGVQNPHIERLRTHSIESSGKLKISPEQHWDFTAEDLKDLGEIGRGAYGSVNKMVHKPSGQIMAVKRIRSTVDEKEQKQLLMDLDVVMRSSDCPYIVQFYGALFREGDCWICMELMSTSFDKFYKYVYSVLDDVIPEEILGKITLATVKALNHLKENLKIIHRDIKPSNILLDRSGNIKLCDFGISGQLVDSIAKTRDAGCRPYMAPERIDPSASRQGYDVRSDVWSLGITLYELATGRFPYPKWNSVFDQLTQVVKGDPPQLSNSEEREFSPSFINFVNLCLTKDESKRPKYKELLKHPFILMYEERAVEVACYVCKILDQMPATPSSPMYVD | 
 |  | GST-MKK4, P45985 1-399 (enzyme) MAAPSPSGGGGSGGGSGSGTPGPVGSPAPGHPAVSSMQGKRKALKLNFANPPFKSTARFTLNPNPTGVQNPHIERLRTHSIESSGKLKISPEQHWDFTAEDLKDLGEIGRGAYGSVNKMVHKPSGQIMAVKRIRSTVDEKEQKQLLMDLDVVMRSSDCPYIVQFYGALFREGDCWICMELMSTSFDKFYKYVYSVLDDVIPEEILGKITLATVKALNHLKENLKIIHRDIKPSNILLDRSGNIKLCDFGISGQLVDSIAKTRDAGCRPYMAPERIDPSASRQGYDVRSDVWSLGITLYELATGRFPYPKWNSVFDQLTQVVKGDPPQLSNSEEREFSPSFINFVNLCLTKDESKRPKYKELLKHPFILMYEERAVEVACYVCKILDQMPATPSSPMYVD | no binding (tested: 5 μg GST-MKK4 on 10 μg MBP fusion)
